At least one structure is not confirmed: it was looked up by name or label, or the drawing left a doubt.
Experiments:
[1] = system: B-CLL cells bearing the chromosomal aberration del(17p)13; experiment: Viability / apoptosis of del(17p)13 B-CLL cells (flow cytometry, AnnexinV/7-AAD); format: cell-based, human
Procedure: Viability was measured using flow-cytometry (AnnexinV/7-AAD,-/-). […] The length of the box corresponds to the interquartile range (IQR) and is the difference between the 75th and 25th percentiles. The horizontal line in the box is the median. […] Viability of B-CLL cells was assessed using a flow-cytometer (Annex-inV/7-AAD -/-). The length of the box corresponds to the interquartile range (IQR) and is the difference between the 75th and 25th percentiles. The horizontal line in the box is the median. […] Day zero is the day of engraftment with 3x10^6 lymphocytes derived from TCL1 transgenic mice with overt leukemia. […] Blood samples were collected from the tail vein of the respective animal and whole blood was analysed for CD5/CD19 positive cells using a flow-cytometer. […] Dashed line is 0.04 mg/kg and black line is 0.05 mg/kg daily for two weeks.
The supplied substances were solved in 100 µl medium at 37°C 90 min on a rotation shaker and transferred to a 96-well plated. Then 100µl medium containing 1.5 x 10^6 B-CLL cells was added. Final concentration of the substances was 20 µM. After a incubation time of 48 h 50 µl XTT-dye was added and absorption measured as above. […] Only substances that reduced the cell metabolism/dye development > 50 % were counted. The reason for this higher cut off value is the low proliferative activity of B-CLL cells who are mainly in Go arrest. Positive substances were double checked with Annex-inV/7-AAD apoptosis/necrosis staining in CD19+/CD5+ positive cells on a flow cytometer.

[2] = system: TCL1 mouse model of B-CLL; settings: cited from earlier work

For `Nc1nc(F)nc2c1ncn2[C@@H]1O[C@H](CO)[C@@H](O)[C@@H]1O` [fludarabine], the “viability (Fig. 1)” value ([1]; 5 µM or 10 µM, 4 p53 deleted, fludarabine resistant B-CLL patients) was “no significant influence on cell viability”, the “response of B-CLL cells of del(17p)13 patients” value ([1]; 5µM, 10µM (Fig. 1)) was “resistant to fludarabine treatment” and the resistance in vitro ([1]; 5µM, 10µM, all B-CLL samples bearing the del(17p)13) was “fludarabine resistance in vitro in all B-CLL samples”. The “time after the initial therapy until retreatment was necessary” value ([2]; fludarabine 34 mg/kg daily for 7 days) was 40 days and the resistance development ([2]; fludarabine treated animals) was “develop resistance after the second treatment cycle”.

Source: EP2397149A1 (Hil-Invent Ges.M.B.H., priority 2010, dated 2011)
